Measurements reported in paper PMC7819943, “Rice protein-binding microarrays: a tool to detect cis-acting elements near promoter regions in rice”.
This is one part of the list.

Protein sequences, listed by entry. Tags and fused reporters are not part of them.
UniProt Q0JBA9, entry or part of it: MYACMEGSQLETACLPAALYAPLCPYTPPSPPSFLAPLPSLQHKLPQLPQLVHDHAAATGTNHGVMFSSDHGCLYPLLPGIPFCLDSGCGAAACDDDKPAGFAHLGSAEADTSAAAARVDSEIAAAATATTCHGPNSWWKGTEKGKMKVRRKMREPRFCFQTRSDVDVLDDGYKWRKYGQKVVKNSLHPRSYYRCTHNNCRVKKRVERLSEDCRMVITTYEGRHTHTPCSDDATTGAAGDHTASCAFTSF

Target: OsWRKY34 (Oryza sativa, UniProt Q0JBA9 1-250)
Assay: protein-binding microarray (RPBM); PBS, 2% BSA, 51.3 ng/ul salmon testes DNA, 50 uM zinc acetate, 200 nM TF, 25 C, 1 h; high values mean tight binding
Conditions: protein: recombinant; tags: N-terminal polyhistidine and DsRed monomer fusion (pET32a); label: CyDye5-dUTP incorporated in the synthesized complementary strand; 3' TTTTT single-stranded linker to array surface; dsDNA, one strand shown
In short: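 An Axon 4000B scanner gave the binding signal as per-feature fluorescence intensity in arbitrary units. This followed washing of a custom Agilent array that had been incubated for 1 h at 25 °C with 200 nM protein in PBS, 2% BSA, salmon testes DNA and 50 µM zinc acetate. The proteins were transcription factors fused at the N-terminus to polyhistidine and DsRed, expressed in E. coli BL21-CodonPlus and purified on Ni–NTA.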

Sequence | binding signal
TTCCTCCGTTTTTTTTATTCCTGCAACTAAAAGGTATTCTCGGAGTCACCTAGTGCAG | 8860 fluorescence intensity (a.u.)
CACCGTCGTCATGGCATCTTCTCCAGCTATATAACCATCCCGGAGTCACCTAGTGCAG | 9720 fluorescence intensity (a.u.)
AGAATCCGAATCCGTATCGTTCTCGGACATGTCAAGCTTTCGGAGTCACCTAGTGCAG | 11200 fluorescence intensity (a.u.)
CACCACATCTTTTTTTGCCCTCATCACTACCCCTCAGGCTCGGAGTCACCTAGTGCAG | 8110 fluorescence intensity (a.u.)
CTCTCTCATCCTTCTCTCATGGCTAGTGACTGTGGGGTTCCGGAGTCACCTAGTGCAG | 11100 fluorescence intensity (a.u.)
CTCCACCGCTTTTGCACCGTATACCATTCGCCCAAGTCTGCGGAGTCACCTAGTGCAG | 8220 fluorescence intensity (a.u.)
ATTGAATGGTTAGGGTTACACAATTGCTTTATATACTCTACGGAGTCACCTAGTGCAG | 8820 fluorescence intensity (a.u.)
CATCTTGTAATTTTCTGTCGAACTGTGTAGTTGGTTTTTTCGGAGTCACCTAGTGCAG | 8820 fluorescence intensity (a.u.)
AGTAGGAGGGTGGGTATTTGCAACAAAATGACTTATGAGGCGGAGTCACCTAGTGCAG | 12800 fluorescence intensity (a.u.)
TCGTACACCCCTTCACCGTACGGTTCTCTTCCCCGAATCGCGGAGTCACCTAGTGCAG | 8940 fluorescence intensity (a.u.)
TCCCCTATTTCCACTCTCGCCACCACCACTCCGCGACAAGCGGAGTCACCTAGTGCAG | 10300 fluorescence intensity (a.u.)
GATTTTCTTGTTTTTGCATATAACCTAGGTCTATTTTCTTCGGAGTCACCTAGTGCAG | 13800 fluorescence intensity (a.u.)
CATCTGTCCATCTTCTCCACCACCACTAGCATTCTTCTTCCGGAGTCACCTAGTGCAG | 11000 fluorescence intensity (a.u.)
ATATATACGTCTGTTTGATTAATTTTTTCATGAACTTTCTCGGAGTCACCTAGTGCAG | 8560 fluorescence intensity (a.u.)
ATTCATCTCTCGCCAGTATATAAGCACACCTGATCCTGTACGGAGTCACCTAGTGCAG | 8440 fluorescence intensity (a.u.)
CGTCTCTTTTACCTCAGTCTCGCGTATATCCTAATACCAACGGAGTCACCTAGTGCAG | 10200 fluorescence intensity (a.u.)
CGGACGCGACGGCTCAACCGCTTTGACCCACCTGTCAGTCCGGAGTCACCTAGTGCAG | 8880 fluorescence intensity (a.u.)
GCAAACCCTAACCTAACCCTAGCCCGCCCAGCGGCGGCGCCGGAGTCACCTAGTGCAG | 8130 fluorescence intensity (a.u.)
ATCCTTATACACAACCTAGCTTAATTAGCTCTCTCACCATCGGAGTCACCTAGTGCAG | 9020 fluorescence intensity (a.u.)
TTCTGCGTCTTTTTCTGGCTTGTGGTGTCTAAGGTGCCATCGGAGTCACCTAGTGCAG | 8250 fluorescence intensity (a.u.)
GCAGCTCTACTGTTTTCCGCTTCCATCTTCTTCCTTTCTTCGGAGTCACCTAGTGCAG | 16700 fluorescence intensity (a.u.)

A second format for some results above:
ATTGAATGGTTAGGGTTACACAATTGCTTTATATACTCTACGGAGTCACCTAGTGCAG
  binding signal = 8820 fluorescence intensity (a.u.)
TCCCCTATTTCCACTCTCGCCACCACCACTCCGCGACAAGCGGAGTCACCTAGTGCAG
  binding signal = 10300 fluorescence intensity (a.u.)
TTCTGCGTCTTTTTCTGGCTTGTGGTGTCTAAGGTGCCATCGGAGTCACCTAGTGCAG
  binding signal = 8250 fluorescence intensity (a.u.)
GCAGCTCTACTGTTTTCCGCTTCCATCTTCTTCCTTTCTTCGGAGTCACCTAGTGCAG
  binding signal = 16700 fluorescence intensity (a.u.)

The listing continues.

Sequence | binding signal
ACATTTTAATTTGTAGGGAGAGGTACTATGGGCTTAACTTCGGAGTCACCTAGTGCAG | 9750 fluorescence intensity (a.u.)
TTTGTTCTCTTTTATATGTAACACTTGCATATTTACCTTCCGGAGTCACCTAGTGCAG | 8980 fluorescence intensity (a.u.)
GTCATCTGATTGTCGTCCATTGTCTCAGTGTCTGTCTGTCCGGAGTCACCTAGTGCAG | 10600 fluorescence intensity (a.u.)
GTGCTTACCTTGTGCCTTGTCCGAGCTGTTGGTGGCTTCGCGGAGTCACCTAGTGCAG | 9900 fluorescence intensity (a.u.)
GAAAAATATTGTTTCTCTCACCGACGCCCTTGATTCTTTCCGGAGTCACCTAGTGCAG | 12500 fluorescence intensity (a.u.)
TCGTTCTTCATGGTTGGGGCTGATTAGGTTGATGAGATAGCGGAGTCACCTAGTGCAG | 11500 fluorescence intensity (a.u.)
ATATTTTTTTTCATCATAGTTTATTTTGCAGCCTCTGTTTCGGAGTCACCTAGTGCAG | 9330 fluorescence intensity (a.u.)
AGATAAGTGATGTGGTTGATACAGACAGTGGGGTGCATATCGGAGTCACCTAGTGCAG | 9080 fluorescence intensity (a.u.)
AAGAGGGTTTACCTTTTTTCGATTTTTTTTGCTATGCATACGGAGTCACCTAGTGCAG | 8320 fluorescence intensity (a.u.)
CCATGCATCCCAAGTCATCACTGCTGTTCTTCCTCATGATCGGAGTCACCTAGTGCAG | 9940 fluorescence intensity (a.u.)
GTGTAGTTTTTTTTTCTTCATTAGTTCAGTTGTACGCACGCGGAGTCACCTAGTGCAG | 8370 fluorescence intensity (a.u.)
CCCCACATGCGCTGCCTCACCACTCTCACTGACGGGTGGACGGAGTCACCTAGTGCAG | 8640 fluorescence intensity (a.u.)
CGCCACTTCACCCTTGTTTTTTTTTTCCCCTTCTCGCAAACGGAGTCACCTAGTGCAG | 11000 fluorescence intensity (a.u.)
CTCTTCTTCTTCTTCTTCTACTTGAGTAGACAGCCACCACCGGAGTCACCTAGTGCAG | 8910 fluorescence intensity (a.u.)
TTTGGTTTCTCTAGTTCACTACCTTTCTGAAAACCACCGCCGGAGTCACCTAGTGCAG | 8740 fluorescence intensity (a.u.)
CCCGGCCTTAGCATACTATTATTTTAGCACTAATCTTAACCGGAGTCACCTAGTGCAG | 9300 fluorescence intensity (a.u.)
TTTTCGTTGTGTGGAGGTGCTGATTTGCTTGGTTTGAAGACGGAGTCACCTAGTGCAG | 9930 fluorescence intensity (a.u.)
ATATAAACCCTTGTTTTGTTCCGGCGGGGCGGGAGGCGATCGGAGTCACCTAGTGCAG | 16400 fluorescence intensity (a.u.)
TTGTCCAACCCGAGACCCCTAATTCCCCGCCGCGAAATCCCGGAGTCACCTAGTGCAG | 8280 fluorescence intensity (a.u.)
ATAAGATATTTTTGACTTTGGTCAAAGTCAAATTGTTTCACGGAGTCACCTAGTGCAG | 15300 fluorescence intensity (a.u.)
TCTGTACCTGTACATCTGTAGCTGTCTGAATGGCCGACTTCGGAGTCACCTAGTGCAG | 8130 fluorescence intensity (a.u.)

Sequence | binding signal
CTCGTCTCGTCTCGTCGCCTCGCCTCGCGAGTTCGCCCGCCGGAGTCACCTAGTGCAG | 8940 fluorescence intensity (a.u.)
AAGTTAATTCCACCCTCCACTCCTCCATGTTCTTCTACTACGGAGTCACCTAGTGCAG | 9490 fluorescence intensity (a.u.)
ATCATCACACACACTCTCTCAATCGCTTTCTCTCTCTTCTCGGAGTCACCTAGTGCAG | 10200 fluorescence intensity (a.u.)
ATTCTGCCGGTTGCTTTTGCTGTCTTGGTCATCGCTTCGGCGGAGTCACCTAGTGCAG | 9170 fluorescence intensity (a.u.)
CTCCAACCACCTCTCCGGTCGCCGTCAATCCTCGCCACACCGGAGTCACCTAGTGCAG | 9600 fluorescence intensity (a.u.)
ACTCGCTAGTCGCTACCACCAACATTTTCCTTCCGCTCTACGGAGTCACCTAGTGCAG | 13500 fluorescence intensity (a.u.)
TTGGTGTTGGATGATGGGTTGTAGTAGTGGTGCGCAAGGGCGGAGTCACCTAGTGCAG | 11100 fluorescence intensity (a.u.)
ACCCAATCTCAATTTGCCCTGTTGCCAACCCTAGTGATGACGGAGTCACCTAGTGCAG | 8520 fluorescence intensity (a.u.)
GCCCCACTAATCAGCGTTCATTTGTCTACTTAATTTGTTCCGGAGTCACCTAGTGCAG | 11000 fluorescence intensity (a.u.)
CCTCCCATTGCTTCACATTTCTTCCTTCCCTTTTGCCTCCCGGAGTCACCTAGTGCAG | 9580 fluorescence intensity (a.u.)
GCTTCGTGGCCCTCGATCTGTGCTGTGCCCGCGCTGTCCACGGAGTCACCTAGTGCAG | 8090 fluorescence intensity (a.u.)
TATAAGTGTCGATTTTTCTTTAGAACCAACACCTATAGTTCGGAGTCACCTAGTGCAG | 8240 fluorescence intensity (a.u.)
TCTTCGTTGCTGCCTATCGTTCTTGTGTGTCCTAAAAAATCGGAGTCACCTAGTGCAG | 14100 fluorescence intensity (a.u.)
GGAAGCCATTTCACGTTCGAATCTTATGTCAGCCAGCTTACGGAGTCACCTAGTGCAG | 8650 fluorescence intensity (a.u.)
CTCGGTCTCGCCACGCTTCTGCCCATCCACAGCTGTCCCCCGGAGTCACCTAGTGCAG | 9070 fluorescence intensity (a.u.)
TTTTTGCTTGTGTTGATGTGTTAAAGTATTAAGTGATTTTCGGAGTCACCTAGTGCAG | 10400 fluorescence intensity (a.u.)
TTATTTTTGTTTAATTACCATTATTAGCAATTAATTAACACGGAGTCACCTAGTGCAG | 8260 fluorescence intensity (a.u.)
CCATGTTCGGAACTATAAATTCTCACTTTTACTCGCATGTCGGAGTCACCTAGTGCAG | 8880 fluorescence intensity (a.u.)
CACCTCGCATCGTCGCCGTCACCGTCGCCGACGACCAGACCGGAGTCACCTAGTGCAG | 8170 fluorescence intensity (a.u.)
AGGCTGTTATTGGTTGAAGTTGGGTGATAGATTTGGAACTCGGAGTCACCTAGTGCAG | 9060 fluorescence intensity (a.u.)
CCCCTTCCGACATCTGGTCAAACTTTCGATGTGACACCCACGGAGTCACCTAGTGCAG | 8260 fluorescence intensity (a.u.)

Sequence | binding signal
TTTGCTGGTATTTGGTCATCACAGGTTAACCACATCAAAACGGAGTCACCTAGTGCAG | 8390 fluorescence intensity (a.u.)
TTGGCTTCTTCAACTTACGTTACCCAATGCATTATATTTGCGGAGTCACCTAGTGCAG | 8070 fluorescence intensity (a.u.)
TTTTGGACGATGCAATTTCTGTTACTATGGTTGTGGGCCTCGGAGTCACCTAGTGCAG | 8440 fluorescence intensity (a.u.)
CTCCTCGCCGACGACGGCTTTCCCCTCACGCTCTCCCGTACGGAGTCACCTAGTGCAG | 8080 fluorescence intensity (a.u.)
TTGTCTCCCATGCCTATGTCATCCATACAACGTTACTTCACGGAGTCACCTAGTGCAG | 9210 fluorescence intensity (a.u.)
TCTTTGTGTTCTAGTGTTAGGTTGGTAGCCAAGAGGGGTTCGGAGTCACCTAGTGCAG | 11500 fluorescence intensity (a.u.)
ACGGTCAGTGTTGCTGCAGAGTTTTTTTTCCGTTGGATTCCGGAGTCACCTAGTGCAG | 10300 fluorescence intensity (a.u.)
TGACTGTATAAACTATTCATGTCTTTTGTTCATTAGCTTCCGGAGTCACCTAGTGCAG | 8120 fluorescence intensity (a.u.)
CGGCGGAGGAGGAGGTTTCTTGCTCGTTTCTTGGGTTGCGCGGAGTCACCTAGTGCAG | 10800 fluorescence intensity (a.u.)
GTGCGCTCGCCTTATATATACCGTACCATGGCAAATCGTGCGGAGTCACCTAGTGCAG | 8180 fluorescence intensity (a.u.)
AAGTGGTGTGTAAGTATGATGTGTATAAATTCGTATGAATCGGAGTCACCTAGTGCAG | 9650 fluorescence intensity (a.u.)
GCCCATATTTTAAAAATAATTTATACTCCTACTTTATATTCGGAGTCACCTAGTGCAG | 9260 fluorescence intensity (a.u.)
CTTAGTATTTACCAACATTTTCTCTATTTGTACAGTTTTCCGGAGTCACCTAGTGCAG | 10800 fluorescence intensity (a.u.)
TGTGAGTGAGTTTTGTTCTTTTTCGCGCGCACGCTTCCCGCGGAGTCACCTAGTGCAG | 10500 fluorescence intensity (a.u.)
GAGGAGGAACGTTGTGTTGATTTATGCTAGTGTGTTGTGTCGGAGTCACCTAGTGCAG | 8650 fluorescence intensity (a.u.)
GGATGTTCACTTTTAACCGTATCAAATTTTAGTAGGTAACCGGAGTCACCTAGTGCAG | 8190 fluorescence intensity (a.u.)
CTGCTCTAACTGAAGTGCCAGGTGACTTGCTTGGTTGGTTCGGAGTCACCTAGTGCAG | 18300 fluorescence intensity (a.u.)
ACCTGTATGTTCTTTTTTTGTACTAGTGATTCATTTTTTTCGGAGTCACCTAGTGCAG | 9850 fluorescence intensity (a.u.)
ACGACTCCGCATCCGCTTCCGCCGCAGTCCGCCGCACCCGCGGAGTCACCTAGTGCAG | 10100 fluorescence intensity (a.u.)
CATGTCATTTGGCGTTAATTATACCTACCACACATGCAGCCGGAGTCACCTAGTGCAG | 8820 fluorescence intensity (a.u.)
CCGGCGCCACCACCACCGTCTCGCACTCGTAATCGTACGCCGGAGTCACCTAGTGCAG | 11000 fluorescence intensity (a.u.)
